Patent US10034476B2, “Insecticidal phenyl-or pyridyl-piperdine compounds” (Syngenta Participations AG, priority 2008, dated 2018)
Some results were stated once for a whole list of compounds, not compound by compound.

Assays:
Type in all cases: in vivo
Aedes aegypti = Aedes aegypti (yellow fever mosquito) larval test; conditions: 2 ppm, L2 larvae with nutrition mixture, 2 days; mortality, growth inhibition
Spodoptera littoralis = Spodoptera littoralis (Egyptian cotton leafworm) cotton leaf disc spray test; conditions: 200 ppm spray on cotton leaf discs, L1 larvae, 3 DAT; mortality, feeding behavior, growth regulation
Description: Spodoptera littoralis (Egyptian Cotton Leafworm) Cotton leaf discs were placed on agar in a 24-well microtiter plate and sprayed with test solutions at an application rate of 200 ppm. After drying, the leaf discs were infested with 5 L1 larvae. The samples were checked for mortality, feeding behavior, and growth regulation 3 days after treatment (DAT).

Plutella xylostella = Plutella xylostella (diamond back moth) artificial diet test; conditions: 200 ppm (concentration in well 18 ppm), L2 larvae, 6 days, larval mortality, growth regulation
Experimental: (§1) Plutella xylostella (Diamond Back Moth): 24-well microtiter plate (MTP) with artificial diet was treated with test solutions at an application rate of 200 ppm (concentration in well 18 ppm) by pipetting. After drying, the MTP's were infested with L2 larvae (7-12 per well). After an incubation period of 6 days, samples were checked for larval mortality and growth regulation.

Diabrotica balteata = Diabrotica balteata (corn root worm) artificial diet test; conditions: 200 ppm (concentration in well 18 ppm), L2 larvae, 5 days, larval mortality, growth regulation
Experimental: as §1, with “Diabrotica Balteata (Corn Root Worm): A” for “Plutella xylostella (Diamond Back Moth):”, “with” for “with L2”, “(L2) (6-10” for “(7-12”, “5” for “6”, “mortality,” for “mortality”

Heliothis virescens = Heliothis virescens (tobacco budworm) egg/artificial diet test; conditions: 200 ppm (concentration in well 18 ppm), eggs 0-24 h old on artificial diet, 4 days; egg mortality, larval mortality, growth regulation
Experimental: Heliothis virescens (Tobacco Budworm): Eggs (0-24 h old) were placed in 24-well microtiter plate on artificial diet and treated with test solutions at an application rate of 200 ppm (concentration in well 18 ppm) by pipetting. After an incubation period of 4 days, samples were checked for egg mortality, larval mortality, and growth regulation.

| Structure (SMILES) | control of Aedes aegypti (Aedes aegypti) | control of Spodoptera littoralis (Spodoptera littoralis) | control of Plutella xylostella (Plutella xylostella) | control of Diabrotica balteata (Diabrotica balteata) | control of Heliothis virescens (Heliothis virescens) |
| --- | --- | --- | --- | --- | --- |
| O=C(Nc1c(C2CCN(Cc3ccc(-c4ccc(F)cc4)cc3)CC2)cc(F)c(F)c1F)c1ccnc(Cl)c1 [Compound A2] | at least 80% |  |  |  |  |
| O=C(Nc1ccc(C(F)(F)F)nc1C1CCN(Cc2ccc(-c3ccc(F)cc3)cc2)CC1)c1cc(Cl)nc(Cl)c1 [Compound C4] | at least 80% |  |  |  |  |
| Cc1cc(F)ccc1-c1ccc(CN2CCC(c3nc(C(F)(F)F)ccc3NC(=O)c3ccnc(Cl)c3)CC2)cc1 [Compound F7] |  | at least 80% | at least 80% |  |  |
| O=C(Nc1ccc(C(F)(F)F)nc1C1CCN(Cc2ccc(-c3c(F)cc(F)cc3F)cc2)CC1)c1ccnc(Cl)c1 [Compound F9] |  | at least 80% | at least 80% | at least 80% | at least 80% |
| Cc1cc(F)ccc1-c1ccc(C[N+]2([O-])CCC(c3nc(C(F)(F)F)ccc3NC(=O)c3ccnc(Cl)c3)CC2)cc1 (stereo not drawn) [Compound H4] |  | at least 80% | at least 80% |  | at least 80% |
| O=C(Nc1ccc(C(F)(F)F)cc1C1CCN(Cc2ccc(-c3ccc(F)cc3F)cc2)CC1)c1ccnc(Cl)c1 [Compound F2] |  | at least 80% | at least 80% | at least 80% | at least 80% |
| O=C(Nc1cc(OC(F)(F)F)ccc1C1CCN(Cc2ccc(-c3ccc(F)cc3)cc2)CC1)c1ccnc(Cl)c1 [Compound A46] |  | at least 80% | at least 80% |  | at least 80% |
| O=C(Nc1ccc(SC(F)(F)F)cc1C1CCN(Cc2ccc(-c3ccc(F)cc3)cc2)CC1)c1ccnc(Cl)c1 [Compound A38] |  | at least 80% | at least 80% | at least 80% | at least 80% |
| O=C(Nc1cc(Cl)c(Cl)cc1C1CCN(Cc2ccc(-c3ccc(F)cc3)cc2)CC1)c1ccnc(Cl)c1 [Compound A39] |  | at least 80% | at least 80% | at least 80% | at least 80% |
| O=C(Nc1ccc(C(F)(F)F)nc1C1CC[N+]([O-])(Cc2ccc(-c3c(F)cc(F)cc3F)cc2)CC1)c1ccnc(Cl)c1 (stereo not drawn) [Compound H5] |  | at least 80% | at least 80% |  | at least 80% |
| O=C(Nc1cc(C(F)(F)F)ccc1C1CC[N+]([O-])(Cc2ccc(-c3ccc(F)cc3)cc2)CC1)c1ccnc(Cl)c1 (stereo not drawn) [Compound B2] | at least 80% |  |  |  |  |
| O=C(Nc1ccc(C(F)(F)F)nc1C1CC[N+]([O-])(Cc2ccc(-c3ccc(F)cc3)cc2F)CC1)c1ccnc(Cl)c1 (stereo not drawn) [Compound H3] |  | at least 80% | at least 80% | at least 80% | at least 80% |
| O=C(Nc1ccc(C(F)(F)F)nc1C1CC[N+]([O-])(Cc2ccc(-c3ccc(F)cc3)cc2)CC1)c1ccnc(Cl)c1 (stereo not drawn) [Compound D1, 2-chloro-N-[1′-(4′-fluoro-biphenyl-4-ylmethyl)-1′-oxy-6-trifluoromethyl-1′,2′,3′,4′,5′,6′-hexahydro-[2,4′]bipyridinyl-3-yl]-isonicotinamide] | at least 80% |  |  |  |  |
| O=C(Nc1ccc(C(F)(F)F)nc1C1CCN(Cc2ccc(-c3ccc(F)cc3F)cc2)CC1)c1ccnc(Cl)c1 [Compound F6] |  | at least 80% | at least 80% | at least 80% | at least 80% |
| O=C(Nc1ccc(F)cc1C1CC[N+]([O-])(Cc2ccc(-c3ccc(F)cc3)cc2)CC1)c1ccnc(Cl)c1 (stereo not drawn) [Compound B4] | at least 80% |  |  |  |  |
| O=C(Nc1ccc(C(F)(F)F)cc1C1CCN(Cc2ccc(-c3c(F)cc(F)cc3F)cc2)CC1)c1ccnc(Cl)c1 [Compound F4] |  | at least 80% | at least 80% | at least 80% | at least 80% |

| Structure (SMILES) | control of Aedes aegypti (Aedes aegypti) | control of Spodoptera littoralis (Spodoptera littoralis) | control of Plutella xylostella (Plutella xylostella) | control of Diabrotica balteata (Diabrotica balteata) | control of Heliothis virescens (Heliothis virescens) |
| --- | --- | --- | --- | --- | --- |
| Cc1ccc(C2CCN(Cc3ccc(-c4ccc(F)cc4)cc3)CC2)c(NC(=O)c2ccnc(Cl)c2)c1 [Compound A1] | at least 80% |  |  |  |  |
| O=C(Nc1ccc(C(F)(F)F)nc1C1CCN(Cc2ccc(-c3ccc(F)cc3)cc2F)CC1)c1ccnc(Cl)c1 [Compound F5] |  | at least 80% | at least 80% | at least 80% | at least 80% |
| O=C(Nc1cc(F)c(F)cc1C1CC[N+]([O-])(Cc2ccc(-c3ccc(F)cc3)cc2)CC1)c1ccnc(Cl)c1 (stereo not drawn) [Compound B1, 2-chloro-N-{4,5-difluoro-2-[1-(4′-fluoro-biphenyl-4-ylmethyl)-1-oxy-piperidin-4-yl]-phenyl}-isonicotinamide] | at least 80% |  |  |  |  |
| O=C(Nc1ccc(C(F)(F)F)cc1C1CCN(Cc2ccc(-c3ccc(OC(F)(F)F)cc3)cc2)CC1)c1ccnc(Cl)c1 [Compound A44] |  | at least 80% | at least 80% | at least 80% | at least 80% |
| O=C(Nc1cc(C(F)(F)F)ccc1C1CCN(Cc2ccc(-c3ccc(F)cc3)cc2)CC1)c1ccnc(Cl)c1 [Compound A4] | at least 80% |  |  |  |  |
| O=C(Nc1cc(Cl)c(Cl)nc1C1CCN(Cc2ccc(-c3ccc(F)cc3)cc2)CC1)c1ccnc(Cl)c1 [Compound C2, 2-chloro-N-[5,6-dichloro-1′-(4′-fluoro-biphenyl-4-ylmethyl)-1′,2′,3′,4′,5′,6′-hexahydro-[2,4′]bipyridinyl-3-yl]-isonicotinamide] | at least 80% |  |  |  |  |
| Cc1cc(F)ccc1-c1ccc(CN2CCC(c3cc(C(F)(F)F)ccc3NC(=O)c3ccnc(Cl)c3)CC2)cc1 [Compound F3] |  |  |  | at least 80% | at least 80% |
| O=C(Nc1ccc(C(F)(F)F)nc1C1CCN(Cc2ccc(-c3ccc(F)cc3)cc2)CC1)c1ccnc(Cl)c1 [Compound C1, 2-chloro-N-[1′-(4′-fluoro-biphenyl-4-ylmethyl)-6-trifluoromethyl-1′,2′,3′,4′,5′,6′-hexahydro-[2,4′]bipyridinyl-3-yl]-isonicotinamide] | at least 80% |  |  |  |  |
| O=C(Nc1ccc(C(F)(F)F)cc1C1CCN(Cc2ccc(-c3ccc(Br)cc3)cc2)CC1)c1ccnc(Cl)c1 [Compound A45] |  | at least 80% | at least 80% | at least 80% | at least 80% |
| O=C(Nc1ccc(F)cc1C1CCN(Cc2ccc(-c3ccc(F)cc3)cc2)CC1)c1ccnc(Cl)c1 [Compound A5] | at least 80% |  |  |  |  |
| N#Cc1cc(C2CCN(Cc3ccc(-c4ccc(F)cc4)cc3)CC2)c(NC(=O)c2ccnc(Cl)c2)cc1F [Compound A40] |  | at least 80% | at least 80% | at least 80% | at least 80% |
| O=C(Nc1ccc(C(F)(F)F)nc1C1CCN(Cc2ccc(-c3ccc(Cl)cc3Cl)cc2)CC1)c1ccnc(Cl)c1 [Compound F8] |  | at least 80% | at least 80% | at least 80% | at least 80% |
| O=C(Nc1ccc(C(F)(F)F)cc1C1CC[N+]([O-])(Cc2ccc(-c3ccc(F)cc3F)cc2)CC1)c1ccnc(Cl)c1 (stereo not drawn) [Compound H2] |  | at least 80% | at least 80% | at least 80% | at least 80% |
| O=C(Nc1cc(F)c(Br)nc1C1CCN(Cc2ccc(-c3ccc(F)cc3)cc2)CC1)c1ccnc(Cl)c1 [Compound C5, N-[6-bromo-5-fluoro-1′-(4′-fluoro-biphenyl-4-ylmethyl)-1′,2′,3′,4′,5′,6′-hexahydro-[2,4′]bipyridinyl-3-yl]-2-chloro-isonicotinamide] | at least 80% |  |  |  |  |
| O=C(Nc1cc(F)c(F)cc1C1CCN(Cc2ccc(-c3ccc(F)cc3)cc2)CC1)c1ccnc(Cl)c1 [Compound A3, 2-chloro-N-{4,5-difluoro-2-[1-(4′-fluoro-biphenyl-4-ylmethyl)-piperidin-4-yl]-phenyl}-isonicotinamide] | at least 80% |  |  |  |  |
